Results deposited as PubChem BioAssay AID1508597 (Cure First, 2020)

Purpose: 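Genes whose silencing sensitises or protects ovarian cancer cells against rucaparib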 (primary screen)
Cells: human ovarian carcinoma lines grown from tumours: OCI-P5x (papillary serous) and OCI-C5x (clear cell)
Reagent: siRNA pool against human genes, 1.25 pmol siRNA per well
Duration: 72 h or 96 h, depending on the cell culture
Challenge: rucaparib 20 µM (about IC30) or vehicle, present until read-out
Rucaparib or vehicle: Vehicle
Cell line: OCI-C5x (clear cell)
Read-out: 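Luminescent ATP-based viability assay read 72 or 96 h after transfection, depending on culture, given as normalised percent viability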
Direction: viability, normalised: higher = more viable cells remaining
Hit rule: 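Active when normalised viability falls below 80 percent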
Calls: active = viability under 80%; inactive = viability 80% or more
This is an unselected part of the about 2,100 reagents, in one setting of the screen. 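Calls flag viability under 80% in either arm, not effects specific to rucaparib; the reference for percent is not stated.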 Unmarked entries are inactive. Some reagents were tested in more than one well and are listed for each. Not stated in the record: the 100% reference.

With ADCK5 (aarF domain containing kinase 5), technical replicate 1, what was measured?
viability, normalised (%): 61.7 (active)

How did the screen score ADCK5 (aarF domain containing kinase 5), technical replicate 2?
viability, normalised (%): 43.4 (active)

How did the screen score ADCK5 (aarF domain containing kinase 5), technical replicate 3?
viability, normalised (%): 46.3 (active)

Which result is listed for TAF3 (TATA-box binding protein associated factor 3), technical replicate 1?
viability, normalised (%): 45 (active)

What is on record for TAF3 (TATA-box binding protein associated factor 3), technical replicate 2?
viability, normalised (%): 55.3 (active)

How did the screen score TAF3 (TATA-box binding protein associated factor 3), technical replicate 3?
viability, normalised (%): 41.4 (active)

What did the screen give for TSSK3 (testis specific serine kinase 3), technical replicate 1?
viability, normalised (%): 79.2 (active)

For TSSK3 (testis specific serine kinase 3), technical replicate 2, how do the results read?
viability, normalised (%): 75.4 (active)

Which result is listed for TSSK3 (testis specific serine kinase 3), technical replicate 3?
viability, normalised (%): 66.2 (active)

Which result is listed for MSH2 (mutS homolog 2), technical replicate 1?
viability, normalised (%): 33.7 (active)

With MSH2 (mutS homolog 2), technical replicate 1, what does the deposit list?
viability, normalised (%): 66.8 (active)

With MSH2 (mutS homolog 2), technical replicate 2, what does the deposit list?
viability, normalised (%): 74.8 (active)

For MSH2 (mutS homolog 2), technical replicate 2, what was measured?
viability, normalised (%): 32.6 (active)

With MSH2 (mutS homolog 2), technical replicate 3, what does the deposit list?
viability, normalised (%): 73.7 (active)

For MSH2 (mutS homolog 2), technical replicate 3, what was measured?
viability, normalised (%): 27.8 (active)

What did the screen give for MRPL58 (mitochondrial ribosomal protein L58), technical replicate 1?
viability, normalised (%): 68.5 (active)

For MRPL58 (mitochondrial ribosomal protein L58), technical replicate 1, what was measured?
viability, normalised (%): 70.5 (active)

What did the screen give for MRPL58 (mitochondrial ribosomal protein L58), technical replicate 2?
viability, normalised (%): 40.5 (active)

For MRPL58 (mitochondrial ribosomal protein L58), technical replicate 2, how do the results read?
viability, normalised (%): 73.4 (active)

How did the screen score MRPL58 (mitochondrial ribosomal protein L58), technical replicate 3?
viability, normalised (%): 67.8 (active)

For MRPL58 (mitochondrial ribosomal protein L58), technical replicate 3, what does the deposit list?
viability, normalised (%): 56.9 (active)

2 entries from above, ordered by “viability, normalised (%)”, ascending.
MSH2 (mutS homolog 2), technical replicate 2 | viability, normalised (%): 32.6 (active)
MSH2 (mutS homolog 2), technical replicate 2 | viability, normalised (%): 74.8 (active)

Additional reagents follow:
Which result is listed for PNCK (pregnancy up-regulated nonubiquitous CaM kinase), technical replicate 1?
viability, normalised (%): 62.1 (active)

For PNCK (pregnancy up-regulated nonubiquitous CaM kinase), technical replicate 2, what was measured?
viability, normalised (%): 63 (active)

With PNCK (pregnancy up-regulated nonubiquitous CaM kinase), technical replicate 3, what does the deposit list?
viability, normalised (%): 46.7 (active)

With MAP4K1 (mitogen-activated protein kinase kinase kinase kinase 1), technical replicate 1, what does the deposit list?
viability, normalised (%): 70.5 (active)

With MAP4K1 (mitogen-activated protein kinase kinase kinase kinase 1), technical replicate 2, what was measured?
viability, normalised (%): 64.9 (active)

Which result is listed for MAP4K1 (mitogen-activated protein kinase kinase kinase kinase 1), technical replicate 3?
viability, normalised (%): 49.4 (active)

With EPHA1 (EPH receptor A1), technical replicate 1, how do the results read?
viability, normalised (%): 59.6 (active)

With EPHA1 (EPH receptor A1), technical replicate 2, how do the results read?
viability, normalised (%): 54.7 (active)

Which result is listed for EPHA1 (EPH receptor A1), technical replicate 3?
viability, normalised (%): 55.3 (active)

With ESRRB (estrogen related receptor beta), technical replicate 1, how do the results read?
viability, normalised (%): 59.3 (active)

What is on record for ESRRB (estrogen related receptor beta), technical replicate 2?
viability, normalised (%): 77.9 (active)

For ESRRB (estrogen related receptor beta), technical replicate 3, how do the results read?
viability, normalised (%): 71 (active)
